Measurements from the supplement of paper PMC9233669.
Variants at the background level are over-represented here.

Legend:
biotinyl-Leu-oxazolone = assay: self-aminoacylation, catalytic enhancement (BLO) (fold over background); higher = more active; k-Seq, kA / k0A0; sequences stand for … in GGGAAUGGAUCCACAUCUACGAAUUC…UUCACUGCAGACUUGACGAAGCUG
Method in brief: (§1)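 Working in 50 μL HEPES/NaCl/KCl/MgCl2/CaCl2 buffer with 5% acetonitrile at pH 6.9–7.0, mutagenized RNA pools (0.43 μM; 21-nt variable region) were reacted with 2–1250 μM of each biotinyl-aminoacyl-oxazolone for 90 minutes at room temperature. Streptavidin capture followed, with quantification by triplicate qPCR and Illumina sequencing. Catalytic enhancement is reported as median kA over the uncatalyzed rate, the low-activity peak of a bimodal Gaussian fit to the data.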

biotinyl-Val-oxazolone = assay: self-aminoacylation, catalytic enhancement (BVO) (fold over background); higher = more active; k-Seq, kA / k0A0; sequences stand for … in GGGAAUGGAUCCACAUCUACGAAUUC…UUCACUGCAGACUUGACGAAGCUG
Method in brief: as §1

biotinyl-Ile-oxazolone = assay: self-aminoacylation, catalytic enhancement (BIO) (fold over background); higher = more active; k-Seq, kA / k0A0; sequences stand for … in GGGAAUGGAUCCACAUCUACGAAUUC…UUCACUGCAGACUUGACGAAGCUG
Method in brief: as §1

biotinyl-Phe-oxazolone = assay: self-aminoacylation, catalytic enhancement (BFO) (fold over background); higher = more active; k-Seq, kA / k0A0; sequences stand for … in GGGAAUGGAUCCACAUCUACGAAUUC…UUCACUGCAGACUUGACGAAGCUG
Method in brief: as §1

biotinyl-Trp-oxazolone = assay: self-aminoacylation, catalytic enhancement (BWO) (fold over background); higher = more active; k-Seq, kA / k0A0; sequences stand for … in GGGAAUGGAUCCACAUCUACGAAUUC…UUCACUGCAGACUUGACGAAGCUG
Method in brief: as §1

biotinyl-Met-oxazolone = assay: self-aminoacylation, catalytic enhancement (BMO) (fold over background); higher = more active; k-Seq, kA / k0A0; sequences stand for … in GGGAAUGGAUCCACAUCUACGAAUUC…UUCACUGCAGACUUGACGAAGCUG
Method in brief: as §1

| Sequence | self-aminoacylation (biotinyl-Leu-oxazolone) | self-aminoacylation (biotinyl-Val-oxazolone) | self-aminoacylation (biotinyl-Ile-oxazolone) | self-aminoacylation (biotinyl-Phe-oxazolone) | self-aminoacylation (biotinyl-Trp-oxazolone) | self-aminoacylation (biotinyl-Met-oxazolone) |
| --- | --- | --- | --- | --- | --- | --- |
| CCGCACUGCAAGCAAUCGGUC [Fam1B.1 aminoacylation ribozyme variant] | 1.17 | 1.81 | 1.52 | 1 | 1.42 | 1.21 |
| CCGCACUUCAAGAAAUCGGUC [Fam1B.1 aminoacylation ribozyme variant] | 1.59 | 1.41 | 1.18 | 12.2 | 10.3 | 1.14 |
| CCGCACUUCAAGCAAUAGGUC [Fam1B.1 aminoacylation ribozyme variant] | 0.548 | 0.581 | 0.559 | 0.892 | 0.607 | 0.598 |
| CCGCACUUCACGCAAUCGGUC [Fam1B.1 aminoacylation ribozyme variant] | 2.34 | 2.1 | 1.36 | 1.66 | 1.85 | 1.54 |
| CCUCACUUAAAGCAAUCGGUC [Fam1B.1 aminoacylation ribozyme variant] | 0.654 | 0.752 | 0.813 | 1.27 | 0.754 | 0.697 |
| CGACUUCCAACAAUCGGUCUG [Fam1A.1 aminoacylation ribozyme variant] | 1.25 | 1.19 | 1.2 | 1.83 | 1.09 | 0.998 |
| CUAAUUCAAACAAUCGAUCUG [Fam1A.1 aminoacylation ribozyme variant] | 0.544 | 0.561 | 0.604 | 0.72 | 0.361 | 0.43 |
| CUACACCAAACAAUCGGUCUG [Fam1A.1 aminoacylation ribozyme variant] | 0.87 | 0.919 | 0.927 | 1.48 | 0.724 | 0.716 |
| CUACACUACAAGCAAUCGGUC [Fam1B.1 aminoacylation ribozyme variant] | 0.616 | 0.738 | 0.7 | 1.22 | 0.686 | 0.547 |
| CUACACUUCAAGCAAUCAGUC [Fam1B.1 aminoacylation ribozyme variant] | 0.754 | 0.886 | 0.668 | 21 | 6.32 | 0.718 |
| CUACACUUCAAGCAAUCCGUC [Fam1B.1 aminoacylation ribozyme variant] | 0.763 | 0.95 | 0.976 | 1.16 | 0.771 | 0.825 |
| CUACACUUCAAGCAAUCGGGC [Fam1B.1 aminoacylation ribozyme variant] | 1.27 | 1.42 | 1.48 | 0.999 | 2.02 | 1.95 |
| CUACACUUCAAGCAAUCGUUC [Fam1B.1 aminoacylation ribozyme variant] | 0.624 | 0.762 | 0.713 | 1.04 | 0.833 | 0.535 |
| CUACACUUCAAGCCAUCGGUC [Fam1B.1 aminoacylation ribozyme variant] | 0.743 | 1.06 | 0.772 | 0.899 | 0.657 | 0.853 |
| CUACAUCAAAUAAUCGGUCUG [Fam1A.1 aminoacylation ribozyme variant] | 0.717 | 0.864 | 0.801 | 1.42 | 0.824 | 0.804 |
| CUACAUCAUACAAUCGGUCUG [Fam1A.1 aminoacylation ribozyme variant] | 0.499 | 0.863 | 0.752 | 0.643 | 0.708 | 0.631 |
| CUACAUCCAACAAUCGGUCUG [Fam1A.1 aminoacylation ribozyme variant] | 0.793 | 0.678 | 0.672 | 1.05 | 0.803 | 1.05 |
| CUACAUCUAACAAUCGGUCUG [Fam1A.1 aminoacylation ribozyme variant] | 0.49 | 0.799 | 0.626 | 0.731 | 0.4 | 0.758 |
| CUACCUCAAACAAUCCGUCUG [Fam1A.1 aminoacylation ribozyme variant] | 0.874 | 1.05 | 0.999 | 0.486 | 0.905 | 1.61 |
| CUACCUCAAACAAUCGGUCGG [Fam1A.1 aminoacylation ribozyme variant] | 1.55 | 1.25 | 1.28 | 1.56 | 1.78 | 1.5 |
| CUACCUCAAACAGUCGGUCUG [Fam1A.1 aminoacylation ribozyme variant] | 0.81 | 1.03 | 0.922 | 0.484 | 0.868 | 1.06 |
| CUACCUCAUACAAUCGGUCUG [Fam1A.1 aminoacylation ribozyme variant] | 0.63 | 0.752 | 0.875 | 1.25 | 0.673 | 0.967 |
| CUACGCCAAACAAUCGGUCUG [Fam1A.1 aminoacylation ribozyme variant] | 1.07 | 0.993 | 1.07 | 1.16 | 1.11 | 0.88 |
| CUACGGCAAACAAUCGGUCUG [Fam1A.1 aminoacylation ribozyme variant] | 0.754 | 0.871 | 0.664 | 0.725 | 0.61 | 0.594 |
| CUACGUCAAACAACCGGUCUG [Fam1A.1 aminoacylation ribozyme variant] | 1.71 | 1.41 | 1.31 | 1.46 | 1.56 | 1.45 |
| CUACGUCAAACAAGCGGUCUG [Fam1A.1 aminoacylation ribozyme variant] | 1.13 | 1.36 | 1.2 | 1.8 | 0.713 | 1.44 |

| Sequence | self-aminoacylation (biotinyl-Leu-oxazolone) | self-aminoacylation (biotinyl-Val-oxazolone) | self-aminoacylation (biotinyl-Ile-oxazolone) | self-aminoacylation (biotinyl-Phe-oxazolone) | self-aminoacylation (biotinyl-Trp-oxazolone) | self-aminoacylation (biotinyl-Met-oxazolone) |
| --- | --- | --- | --- | --- | --- | --- |
| CUACGUCAAACAAUCGGUCCG [Fam1A.1 aminoacylation ribozyme variant] | 1.56 | 1.33 | 1 | 0.649 | 1.03 | 1.53 |
| CUACGUCAAACAAUGGGUCUG [Fam1A.1 aminoacylation ribozyme variant] | 1.62 | 1.35 | 1.38 | 2.25 | 1.18 | 1.22 |
| CUACGUCAAACAUUCGGUCUG [Fam1A.1 aminoacylation ribozyme variant] | 2.5 | 3.79 | 2.87 | 12.8 | 3.07 | 2.93 |
| CUACGUCAAACCAUCGGUCUG [Fam1A.1 aminoacylation ribozyme variant] | 1.1 | 1.41 | 1.36 | 0.967 | 0.872 | 1.1 |
| CUACGUCAAAUAAUCGGUCUG [Fam1A.1 aminoacylation ribozyme variant] | 1.15 | 1.25 | 1.44 | 1.18 | 1.19 | 1.35 |
| CUACUACAAACAAUCGGUGUG [Fam1A.1 aminoacylation ribozyme variant] | 0.659 | 0.715 | 0.698 | 0.884 | 0.572 | 0.81 |
| CUACUCCAAACAAUCGGUAUG [Fam1A.1 aminoacylation ribozyme variant] | 0.875 | 0.715 | 0.632 | 1.57 | 0.497 | 0.698 |
| CUACUCCAAACAUUCGGUCUG [Fam1A.1 aminoacylation ribozyme variant] | 1.6 | 1.46 | 1.25 | 1.06 | 0.949 | 1.26 |
| CUACUGCAAACAAUCGGUCAG [Fam1A.1 aminoacylation ribozyme variant] | 0.699 | 0.748 | 0.788 | 0.763 | 0.741 | 0.727 |
| CUACUGCAUACAAUCGGUCUG [Fam1A.1 aminoacylation ribozyme variant] | 0.577 | 0.643 | 0.677 | 0.959 | 0.659 | 0.612 |
| CUACUUAAAACAAUCGAUCUG [Fam1A.1 aminoacylation ribozyme variant] | 0.536 | 0.844 | 0.761 | 0.806 | 0.79 | 0.737 |
| CUACUUAAAACAAUCGGACUG [Fam1A.1 aminoacylation ribozyme variant] | 0.75 | 0.613 | 0.643 | 0.651 | 0.489 | 0.795 |
| CUACUUAACACAAUCGGUCUG [Fam1A.1 aminoacylation ribozyme variant] | 0.743 | 0.95 | 0.849 | 0.671 | 0.779 | 0.853 |
| CUACUUAGAACAAUCGGUCUG [Fam1A.1 aminoacylation ribozyme variant] | 0.713 | 0.614 | 0.528 | 0.419 | 0.413 | 0.6 |
| CUACUUCAAAAAAUCGGUCUG [Fam1A.1 aminoacylation ribozyme variant] | 0.92 | 0.795 | 1 | 11.8 | 7.37 | 0.758 |
| CUACUUCAAACAAAUGGUCUG [Fam1A.1 aminoacylation ribozyme variant] | 0.719 | 0.735 | 0.86 | 0.655 | 0.587 | 0.576 |
| CUACUUCAAACAACCGAUCUG [Fam1A.1 aminoacylation ribozyme variant] | 0.544 | 0.669 | 0.655 | 0.821 | 0.363 | 0.6 |
| CUACUUCAAACAACCGGUCUA [Fam1A.1 aminoacylation ribozyme variant] | 0.908 | 1.01 | 1.06 | 1.01 | 1.08 | 0.721 |
| CUACUUCAAACAACCGGUCUG [Fam1A.1 aminoacylation ribozyme variant] | 0.791 | 0.845 | 0.874 | 1.07 | 0.844 | 0.729 |
| CUACUUCAAACAAUAGCUCUG [Fam1A.1 aminoacylation ribozyme variant] | 0.515 | 0.584 | 0.676 | 0.637 | 0.36 | 0.482 |
| CUACUUCAAACAAUCAGUCUC [Fam1A.1 aminoacylation ribozyme variant] | 0.872 | 0.904 | 0.833 | 25.9 | 8 | 0.723 |
| CUACUUCAAACAAUCCGUGUG [Fam1A.1 aminoacylation ribozyme variant] | 3.84 | 1.88 | 1.99 | 7.45 | 2.52 | 2.86 |
| CUACUUCAAACAAUCGCACUG [Fam1A.1 aminoacylation ribozyme variant] | 1.58 | 0.938 | 1.31 | 1.8 | 0.99 | 1.43 |
| CUACUUCAAACAAUCGGACCG [Fam1A.1 aminoacylation ribozyme variant] | 0.612 | 0.839 | 0.711 | 1.35 | 0.753 | 0.683 |
| CUACUUCAAACAAUCGGACGG [Fam1A.1 aminoacylation ribozyme variant] | 0.662 | 0.858 | 0.783 | 0.592 | 0.576 | 0.768 |
